Measured values from PubChem BioAssay AID651768 (National Center for Advancing Translational Sciences (NCATS), 2012).
Among all 360,000 compounds or so, about 1,700 (0.47%) were called active. This list was built around the results that the source calls inconclusive (neither active nor inactive); the mix of calls is not that of the screen. Calls come from the whole dose curve; as a rule, active = well fitted inhibition curve with a large enough effect; inconclusive = small, poorly fitted or top-dose-only effect; inactive = no such curve, though single readings can be large or run the other way. A potency beside an inconclusive call is a rough fit, not a confirmed value.

Amino acid sequences for entries named in this document (tags omitted).
UniProt Q14191, whole entry, looked up: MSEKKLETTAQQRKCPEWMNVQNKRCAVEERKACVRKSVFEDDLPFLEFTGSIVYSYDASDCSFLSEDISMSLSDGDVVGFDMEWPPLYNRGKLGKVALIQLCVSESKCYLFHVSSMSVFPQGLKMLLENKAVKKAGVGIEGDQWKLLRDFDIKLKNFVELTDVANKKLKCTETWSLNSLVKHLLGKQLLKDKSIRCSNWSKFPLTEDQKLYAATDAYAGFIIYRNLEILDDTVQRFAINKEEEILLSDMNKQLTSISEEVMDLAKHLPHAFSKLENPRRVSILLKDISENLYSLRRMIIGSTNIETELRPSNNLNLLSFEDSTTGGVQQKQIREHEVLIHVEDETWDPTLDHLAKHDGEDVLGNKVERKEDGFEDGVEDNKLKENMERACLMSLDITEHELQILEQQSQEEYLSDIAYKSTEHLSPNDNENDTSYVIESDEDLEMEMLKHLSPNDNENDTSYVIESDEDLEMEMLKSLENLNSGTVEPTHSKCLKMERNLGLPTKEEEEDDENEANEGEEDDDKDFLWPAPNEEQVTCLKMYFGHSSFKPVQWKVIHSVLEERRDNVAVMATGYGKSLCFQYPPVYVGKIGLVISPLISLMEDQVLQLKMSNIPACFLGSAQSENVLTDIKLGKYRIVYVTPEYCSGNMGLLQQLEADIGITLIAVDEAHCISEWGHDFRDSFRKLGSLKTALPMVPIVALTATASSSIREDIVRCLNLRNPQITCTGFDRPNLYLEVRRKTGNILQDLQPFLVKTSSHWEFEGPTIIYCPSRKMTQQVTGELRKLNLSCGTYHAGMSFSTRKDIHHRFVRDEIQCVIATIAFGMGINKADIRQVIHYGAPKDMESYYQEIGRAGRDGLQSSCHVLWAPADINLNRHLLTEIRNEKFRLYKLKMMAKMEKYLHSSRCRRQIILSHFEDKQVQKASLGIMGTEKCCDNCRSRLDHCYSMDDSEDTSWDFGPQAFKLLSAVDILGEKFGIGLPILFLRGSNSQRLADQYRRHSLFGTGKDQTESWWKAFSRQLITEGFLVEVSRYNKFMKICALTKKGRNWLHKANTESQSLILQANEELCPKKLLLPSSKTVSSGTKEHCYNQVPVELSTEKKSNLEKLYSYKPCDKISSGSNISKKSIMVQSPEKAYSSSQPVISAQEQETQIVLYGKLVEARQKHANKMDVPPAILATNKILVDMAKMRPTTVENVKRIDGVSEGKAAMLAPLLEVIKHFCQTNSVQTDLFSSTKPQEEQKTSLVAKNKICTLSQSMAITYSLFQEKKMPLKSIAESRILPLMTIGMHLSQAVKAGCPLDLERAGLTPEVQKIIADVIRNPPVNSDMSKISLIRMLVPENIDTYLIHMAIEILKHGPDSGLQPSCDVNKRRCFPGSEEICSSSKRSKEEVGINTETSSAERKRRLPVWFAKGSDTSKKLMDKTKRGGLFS

The compounds below were run against Bifunctional 3'-5' exonuclease/ATP-dependent helicase WRN (Homo sapiens) (UniProt Q14191) (assay: qHTS for Inhibitors of WRN Helicase). Conditions: WRN helicase unwinding, fluorescent forked duplex, kinetic; activity change, negative = inhibition: at 114 µM (top of the series) unless noted.
Outline: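 Kinetic fluorescence helicase assay: unwinding of a quenched forked DNA duplex (100 nM final) with 2 mM ATP final raises red fluorescence (525/598 nm). Compounds sat 15 min at room temperature with 20 nM WRN beforehand.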
% is set by controls: 0 for no effect and ±100 for the full control effect; potency is the fitted concentration of half-maximal effect.
Note: nearly all actives have a fitted effect of over 55% in size.

With `C#CCOCCOCCOCCNc1nc(N2CCN(C(=O)CCCCCCCCCCNC(=O)Cn3cc(C[C@@H](C)O)nn3)CC2)nc(N2CCN(C(=O)CCCCCCCCCCNC(=O)[C@H](CCCCN)n3cc(C[C@@H](C)CC)nn3)CC2)n1` as the compound, how does the Potency read?
The Potency was inconclusive: 31.6 µM [inhibitor, single point].

`O=C(N/N=C/c1ccoc1)c1cc(Br)ccc1O` was tested. Which Potency did it give?
Its Potency is “inactive”.

Which Potency does the source give for `COc1ccc(/C=N/Nc2cc(C)nc3c(C)cccc23)cc1` here?
Its Potency is inconclusive: 50.1 µM [inhibitor, partial curve].

Which Potency does the source give for `CCCC(=O)n1nc(-c2cccnc2)nc1NCc1ccc(OC)cc1` here?
The Potency was inconclusive: 89.1 µM [inhibitor, single point].

`Cn1cccc1-c1cc(C(=O)N/N=C/c2ccc([N+](=O)[O-])cc2)[nH]n1` was tested. Which Potency did it give?
Its Potency is “inactive”.

For `O=S1(=O)NC(c2ccccc2)CC(CC2CCCCC2)O1` (configuration not stated), which Potency is on record?
The Potency was “inactive”.

Which Potency does the source give for `COC(=O)c1ccc(COC(=O)CCS(=O)(=O)c2ccc(C)cc2)cc1` here?
The Potency was inconclusive: 31.6 µM [inhibitor, single point].

How did the Potency turn out when `COc1ccc(NC(=O)Cn2ncc(Cl)c(Cl)c2=O)cc1S(=O)(=O)N1CCOCC1` was run?
The Potency was inconclusive: 16.8 µM [inhibitor, partial curve].

With `Oc1c(C=Nc2cccc3nsnc23)ccc2ccccc12` as the compound, how does the Potency read?
Its Potency is inconclusive: 50.1 µM [inhibitor, partial curve].

How did the Potency turn out when `S=C(NCc1cccnc1)Nc1ccc(Oc2ccc(Cl)cc2)cc1` was run?
Its Potency is inconclusive: 3.98 µM [inhibitor, full curve, poor fit].

With `O=C(C[C@@H]1CC[C@@H]2[C@H](COC[C@H](O)CN2C(=O)Nc2ccc(F)cc2)O1)NCCc1ccncc1` as the compound, how does the Potency read?
Its Potency is “inactive”.

`CCn1c(C)nc2cc(C(=O)N/N=C/c3cccc(O)c3O)ccc21` was tested. Which Potency did it give?
The Potency was “inactive”.

Which Potency does the source give for `O=C(Cc1ccc(S(=O)(=O)N2CCOCC2)s1)Nc1ccccc1N1CCOCC1` here?
Its Potency is inconclusive: 39.8 µM [inhibitor, single point].

Which Potency does the source give for `O=C(O)c1cc(O)c2c(c1)[C@H]([C@H]1c3cc(C(=O)O)cc(O)c3C(=O)c3c(O[C@@H]4O[C@H](CO)[C@@H](O)[C@H](O)[C@H]4O)cccc31)c1cccc(OC3O[C@H](CO)[C@@H](O)[C@H](O)[C@H]3O)c1C2=O` (some centres not stated) here?
Its Potency is active: 3.98 µM.

Which Potency does the source give for `COC(=O)c1ccc(NC(=O)CSc2nc3ncccc3[nH]2)cc1` here?
The Potency was inconclusive: 3.55 µM [inhibitor, full curve, poor fit].

With `COc1ccc(CNC(=O)C(=O)NCC2CCCO2)cc1` (configuration not stated) as the compound, how does the Potency read?
Its Potency is “inactive”.

With `Cc1nnc(SCC2=C(C(=O)O)N3C(=O)C(NC(=O)c4cccc(F)c4F)C3SC2)s1` (configuration not stated) as the compound, how does the activity change, negative = inhibition read?
The activity change, negative = inhibition was inactive: -7.16% [at 11.6 µM].

How did the Potency turn out when `CCCCOc1ccc(Cc2n[nH]c(=S)n2N)cc1` was run?
Its Potency is inconclusive: 50.1 µM [inhibitor, partial curve].

`O=C(N/N=C/c1cccc([N+](=O)[O-])c1)c1cc(-c2ccccc2)nc2ccccc12` was tested. Which Potency did it give?
The Potency was “inactive”.

Which Potency does the source give for `COc1ccc(NC(=O)Cn2cnc3c(oc4nc5c(cc43)COC(C)(C)C5)c2=O)cc1` here?
Its Potency is inconclusive: 3.16 µM [inhibitor, full curve, poor fit].

With `CC1CCc2sc(C(=O)N3CCN(c4ncccn4)CC3)cc2C1` (configuration not stated) as the compound, how does the Potency read?
Its Potency is inconclusive: 44.7 µM [inhibitor, partial curve].

`O=S(=O)(Nc1nc(-c2ccco2)c(-c2ccco2)s1)c1ccc(F)cc1F` was tested. Which Potency did it give?
The Potency was inconclusive: 56.2 µM [inhibitor, partial curve].

How did the Potency turn out when `CCc1c(C2CC2)ncn1Cc1cccc(-c2ccccc2)c1` was run?
The Potency was “inactive”.

For `COc1ccc(/C=N/Nc2ncc(Br)cn2)c(OC)c1`, which Potency is on record?
Its Potency is inconclusive: 56.2 µM [inhibitor, partial curve].

With `O=c1cc(-c2ccc(O)cc2)oc2cc(O)c([C@@H]3O[C@H](CO)[C@@H](O)[C@H](O)[C@H]3O)c(O)c12` as the compound, how does the Potency read?
Its Potency is “inactive”.

For `CCn1c(SCC(=O)c2ccc(O)c(O)c2)nnc1-c1ccccc1OC`, which Potency is on record?
The Potency was active: 20 µM.

Which Potency does the source give for `COc1ccccc1OCC(=O)OCC(=O)Nc1ncc(Cl)cc1Cl` here?
The Potency was inconclusive: 89.1 µM [inhibitor, single point].

`CN(C)CCCNCC(=O)NN(c1ccccc1)c1ccccc1` was tested. Which Potency did it give?
The Potency was inconclusive: 20 µM [inhibitor, full curve].

With `c1cc2c3c(cccc3c1)C(N1CCOCC1)=N2` as the compound, how does the Potency read?
The Potency was “inactive”.

Which Potency does the source give for `COc1cc2nc(NCCCN3CCN(C)CC3)n3nc(-c4ccccc4)nc3c2cc1OC` here?
The Potency was active: 11.9 µM.

`CCCCCCn1c(=O)[nH]c2nc3cc(N)ccc3nc2c1=O` was tested. Which Potency did it give?
The Potency was “inactive”.

For `COc1ccc(C(=O)C[n+]2cn(C(F)F)c3ccccc32)c(F)c1`, which Potency is on record?
Its Potency is inconclusive: 89.1 µM [inhibitor, single point].

With `O=C(CSc1nnc(SCC(=O)c2ccco2)s1)c1ccco1` as the compound, how does the Potency read?
Its Potency is inconclusive: 79.4 µM [inhibitor, partial curve].

With `COc1cc(/C=C/C=C2/CC/C(=C/C=C/c3ccc(O)c(OC)c3)C2=O)ccc1O` as the compound, how does the Potency read?
Its Potency is active: 39.8 µM.

For `COc1cc(NC(=S)NC2CC(C)(C)NC(C)(C)C2)c(OC)cc1Cl`, which Potency is on record?
Its Potency is “inactive”.

Which Potency does the source give for `O=C(N/N=C/c1c[nH]c2ccc(Br)cc12)c1ccncc1` here?
Its Potency is inconclusive: 50.1 µM [inhibitor, partial curve].

With `CC1CC(C)(C)NC(=S)N1CC(=O)NCc1ccccc1Cl` (configuration not stated) as the compound, how does the Potency read?
Its Potency is inconclusive: 39.8 µM [inhibitor, partial curve].

`N#C/C(=N\Nc1cccc([N+](=O)[O-])c1)C(=O)c1ccc(Br)cc1` was tested. Which Potency did it give?
Its Potency is inconclusive: 10 µM [inhibitor, full curve, poor fit].

For `COc1ccc(CN(C)C(=O)Cn2cc(C)c(=O)[nH]c2=O)cc1OC`, which Potency is on record?
Its Potency is “inactive”.

`O=C(O)c1ccc(N/N=C/C2=C(N3CCOCC3)C(=C\c3ccccc3)/CC2)cc1` was tested. Which Potency did it give?
Its Potency is inconclusive: 56.2 µM [inhibitor, partial curve].

Which Potency does the source give for `COc1ccc(/C=C/C(=O)NC(=S)Nc2ccc(S(=O)(=O)Nc3nccnc3OC)cc2)cc1` here?
Its Potency is inconclusive: 56.2 µM [inhibitor, partial curve].

`Cc1ccc(C2C(/C=C3/SC(=S)NC3=O)=C(c3cccs3)Oc3ccccc32)cc1` (configuration not stated) was tested. Which Potency did it give?
The Potency was active: 79.4 µM.

Which Potency does the source give for `CCOC(=O)C(C)C(C)=O` (configuration not stated) here?
The Potency was active: 15.8 µM.

Which Potency does the source give for `Cc1ccc2nc(-c3ccc(NC(=O)COC(=O)c4cncc(Br)c4)cc3)sc2c1` here?
Its Potency is inconclusive: 39.8 µM [inhibitor, single point].

For `O=C1c2ccccc2C(=O)N1/N=C/c1ccc(O)c(O)c1`, which activity change, negative = inhibition is on record?
Its activity change, negative = inhibition is inactive: -20.6% [at 11.6 µM].

Which Potency does the source give for `CCN1C(=O)[C@H]2[C@@H](c3ccc(-c4cccc(Cl)c4)c(OC)c3)N[C@@](Cc3ccccc3)(C(=O)OC)[C@H]2C1=O` here?
The Potency was inconclusive: 3.16 µM [inhibitor, partial curve, poor fit].

With `CC(C)Cc1ccc(C(C)CC2=CCC(CN(C)C)C2=O)cc1` (configuration not stated) as the compound, how does the Potency read?
The Potency was inconclusive: 25.1 µM [inhibitor, partial curve].

How did the Potency turn out when `COc1ccc(OC)c(N/C=C/C(=O)c2ccc(OC)c(OC)c2)c1` was run?
The Potency was inconclusive: 10 µM [inhibitor, full curve].

For `O=C(O)CCN1C(=O)/C(=C/c2ccc(-c3nc4ccccc4s3)o2)SC1=S`, which Potency is on record?
The Potency was inconclusive: 11.9 µM [inhibitor, partial curve].

`CCOC(=O)c1ccc(NC(=O)CSc2nc(N)c(NC(=O)c3ccc(Br)o3)c(=O)[nH]2)cc1` was tested. Which Potency did it give?
The Potency was inconclusive: 31.6 µM [inhibitor, partial curve].

For `O=C(NC(=S)Nc1ccc(N2CCCCC2)c(Cl)c1)c1ccc2c(c1)OCCO2`, which Potency is on record?
The Potency was inconclusive: 50.1 µM [inhibitor, partial curve, poor fit].

Which Potency does the source give for `C=CCn1c(=O)c2ccccc2n2nnc(C(=O)OCC)c12` here?
The Potency was inconclusive: 11.2 µM [inhibitor, full curve, poor fit].

`CCNc1ccc(Br)cc(C(=O)/C=C/c2c(Cl)cccc2Cl)c1=O` was tested. Which Potency did it give?
The Potency was inconclusive: 56.2 µM [inhibitor, partial curve].

For `CCc1cc(OCCN(C)C)ccc1Cl`, which Potency is on record?
Its Potency is inconclusive: 31.6 µM [inhibitor, full curve].

How did the Potency turn out when `COc1ccc(OC)c(/C=N/NC(=O)c2c(C)nc3ccc(C)cn23)c1` was run?
The Potency was “inactive”.

How did the Potency turn out when `O=C(Nc1ccc2nc(-c3ccco3)c(-c3ccco3)nc2c1)NC1CC1` was run?
Its Potency is active: 10 µM.

How did the Potency turn out when `c1ccc(-c2nc(NCc3ccco3)c3oc4ccccc4c3n2)cc1` was run?
The Potency was inconclusive: 89.1 µM [inhibitor, single point].

With `CSc1ccccc1NC(=O)COC(=O)/C=C/c1ccco1` as the compound, how does the Potency read?
The Potency was inconclusive: 39.8 µM [inhibitor, partial curve].

`CCOc1ccc(-c2csc(/C(C#N)=C\c3ccc(O)c([N+](=O)[O-])c3)n2)cc1` was tested. Which Potency did it give?
Its Potency is inconclusive: 70.8 µM [inhibitor, partial curve].

For `Cc1cc(S(=O)(=O)Nc2nc(CN3CCOCC3)nc3sc4c(c23)CCC4)cc(C)c1C`, which Potency is on record?
Its Potency is inconclusive: 70.8 µM [inhibitor, single point].

For `CS(=O)(=O)Nc1ccc(C(=O)Nc2ccccc2Sc2ccccc2)cc1`, which Potency is on record?
Its Potency is inconclusive: 10 µM [inhibitor, partial curve].

For `O=C(NC(=S)Nc1ccccc1Br)C1CCCCC1`, which Potency is on record?
Its Potency is inconclusive: 39.8 µM [inhibitor, partial curve].

How did the Potency turn out when `CCNC(=O)CC1S/C(=N/N=C(\C)c2ccccc2)NC1=O` (configuration not stated) was run?
Its Potency is “inactive”.

How did the Potency turn out when `CSc1nnc(SCc2nc3sc(C(=O)O)c(C)c3c(=O)[nH]2)s1` was run?
The Potency was active: 35.5 µM.

How did the Potency turn out when `NS(=O)(=O)c1ccc(NC2=CC(=O)C(=O)c3ccccc32)cc1` was run?
Its Potency is inconclusive: 70.8 µM [inhibitor, partial curve].

How did the Potency turn out when `O=C(O)c1cccc(O)c1O` was run?
The Potency was “inactive”.

`Cc1ccc(Cl)c(OCCCN(C)Cc2ccccc2)c1` was tested. Which Potency did it give?
Its Potency is inconclusive: 89.1 µM [inhibitor, single point].
